Results published in the supplement of paper PMC4683952.
Some of the results follow. The rule behind the calls is not given here. Most values lie within the scatter of the assay; repeated measurements hardly agree.

Test system: Lgr5 (MarsCy1-Lgr5-EGFP, U2OS)
Test: cell-surface Lgr5 expression (SCi1 fluorescence, background-subtracted) relative to WT DMSO (fold of DMSO control); higher = more Lgr5 at the plasma membrane
Conditions: U2OS MarsCy1-Lgr5-EGFP stable; treatment time: overnight; library: Kinase Gold; 20 µM
Procedure: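 U2OS cells stably expressing MarsCy1-Lgr5-EGFP in 384-well plates were incubated overnight with single-dose compounds. Cell-surface Lgr5 was stained with SCi1 and scanned at 700 nm on a LI-COR Odyssey. Intensity was background-subtracted (parental U2OS) and expressed relative to WT DMSO wells.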

O=C(/C=C/c1ccco1)Nc1c[nH]c(=O)[nH]c1=O
cell-surface Lgr5 expression: inactive: 0.867

Nc1cccc(NC(=O)c2ccccn2)c1
cell-surface Lgr5 expression: inactive: 0.826

O=C(CCCl)Nc1cc(-c2nc3ccccc3o2)ccc1Cl
cell-surface Lgr5 expression: inactive: 0.793

O=C(Cc1cccs1)NNC(=S)NC(=O)c1ccco1
cell-surface Lgr5 expression: inactive: 0.676

Cc1ccc2cccc(NC(=S)NC(=O)c3ccn(C)n3)c2n1
cell-surface Lgr5 expression: inactive: 0.902

NC(Cc1c[nH]c2ccccc12)C(=O)NCc1ccco1 (stereo not drawn)
cell-surface Lgr5 expression: inactive: 0.677

N=c1oc2cc(O)ccc2cc1C(=O)Nc1ccccn1
cell-surface Lgr5 expression: inactive: 0.652

O=C(/C=C/c1ccco1)c1ccc(NC(=O)c2cccs2)cc1
cell-surface Lgr5 expression: inactive: 0.958

Nc1ccc2nc(-c3cccc(O)c3)[nH]c2c1
cell-surface Lgr5 expression: inactive: 0.863

O=C(NCc1ccncc1)C(=O)NCc1cccnc1
cell-surface Lgr5 expression: inactive: 0.742

COc1ccccc1OCC(=O)NNC(=O)C1CCCO1 (stereo not drawn)
cell-surface Lgr5 expression: inactive: 1.01

NC(=O)C[n+]1cccc(C(=O)Nc2ccccc2)c1
cell-surface Lgr5 expression: inactive: 0.947

Cc1c2cc(O)c(=O)cc-2oc2cc(O)c(O)cc12
cell-surface Lgr5 expression: inactive: 0.807

Cc1ccc(NC(=O)c2cccs2)cc1NC(=O)c1ccccc1
cell-surface Lgr5 expression: inactive: 0.76

O=C(Nc1cc2cc[nH]c2cn1)c1ccccc1
cell-surface Lgr5 expression: inactive: 0.789

COc1ccc2oc(=O)c(C(=O)C[n+]3ccc4ccccc4c3)cc2c1
cell-surface Lgr5 expression: inactive: 0.521

CCC(=O)Nc1sc(C(=O)Nc2ccccc2)c(C)c1C(=O)OC
cell-surface Lgr5 expression: inactive: 1.16

COc1cccc(C(=O)/C=C\Nc2ccc3c(c2)OCO3)c1
cell-surface Lgr5 expression: inactive: 0.813
